Assay results from patent US7429580B2, “Compositions of an anticonvulsant and an antipsychotic drug and methods of using the same for affecting weight loss” (Orexigen Therapeutics, Inc., priority 2004, dated 2008).
Some entries share one result that the patent states for a list of compounds.

System: mice
Experiment: Food intake in mice (acute, after fast / intra-peritoneal injection)
Type: in vivo
Settings: other preclinical experiments; each compound alone

| Compound | time by which effects on food intake had faded |
| --- | --- |
| CC(NC(C)(C)C)C(=O)c1cccc(Cl)c1 (centres unmarked) [bupropion] | ≤ 4 h |
| NS(=O)(=O)Cc1noc2ccccc12 [zonisamide] | ≤ 4 h |
